# No constants are given. Whether binding was seen depends on the method and setting. Some results given as binding are weak or reduced against the parent protein; the word gives no strength.
# T1: TatC (Escherichia coli) (UniProt P69423)
# T1 sequence: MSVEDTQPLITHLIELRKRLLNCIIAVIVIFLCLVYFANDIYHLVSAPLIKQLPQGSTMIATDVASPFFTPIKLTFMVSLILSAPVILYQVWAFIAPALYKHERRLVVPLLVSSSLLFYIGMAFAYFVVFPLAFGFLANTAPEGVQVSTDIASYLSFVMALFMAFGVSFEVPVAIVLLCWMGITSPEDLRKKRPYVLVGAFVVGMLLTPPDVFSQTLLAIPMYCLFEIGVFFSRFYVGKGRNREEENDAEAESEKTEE
# B1: TatB (wild type) (protein, UniProt P69425 1-171)
# chain: MFDIGFSELLLVFIIGLVVLGPQRLPVAVKTVAGWIRALRSLATTVQNELTQELKLQEFQDSLKKVEKASLTNLTPELKASMDELRQAAESMKRSYVANDPEKASDEAHTIHNPVVKDNEAAHEGVTPAAAQTQASSPEQKPETTPEPVVKPAADAEPKTAAPSPSSSDKP
# Target: T1, TatC (Escherichia coli)
# Assay: native gel or EMSA
binder,measurement,value
B1,binding,binds
